Measurements as given in US20120318750A1, “METHODS AND COMPOSITIONS FOR COMPLEX BINDING OF METAL IONS” (ChemseQ International AB, priority 2009, published 2012).

What was measured:
[1] = Flotation of manganese ions with sequestering agent in a flotation cell, metal analysis of foam; conditions: 1 mg manganese as manganese sulphate, pH 5.5
Text: In order to investigate the separability of a sequestering agent according to the invention a small flotation cell was used. This flotation cell has a volume of approximately 1.6 l, a height of 315 mm and an inner diameter of 80 mm. Compressed air used to form the foam is led through a porous sintered glass filter of diameter 60 mm with a nominal porosity of 10-16 μm (“porosity 4”) mounted at the bottom of the flotation cell. At the top of the flotation cell a cylinder of an inner diameter of 30 mm and a height of 415 mm, with an outlet placed at 72 mm from the bottom, is mounted. The outlet is used to collect the foam and thereby the chelate according to the invention. At the top of the latter cylinder an adjustable valve is mounted to be able to better control the foaming and to direct the foam to the outlet.
was prepared from 2-aminoethanol, tert-butyl bromoacetate and tert-butyl 2-aminotetradecanoate as main ingredients using conventional techniques and was therafter mixed in 500 ml deionised water with 1 mg of manganese in the form of manganese sulphate (in a molar ratio of 1.2:1=sequestering agent: manganese sulphate) and a flotation agent (N,N-dimethyldodecylamine N-oxide, in a molar ratio of 10:1=flotation agent:sequestering agent).
The pH-value of the solution was adjusted to pH 5.5 with 0.1 M sodium hydroxide solution or 0.1 M hydrogen chloride solution. […]

[2] = Flotation of copper ions with sequestering agent in a flotation cell, metal analysis of foam; conditions: 1 mg copper as copper sulphate, pH 5.5
[3] = Sequestering of metal ions in thermomechanical pulp, manganese content of pulp after treatment; conditions: TMP from spruce, 0.17 mmol sequestering agent, pH 6.2, 60 min; starting pulp 104 mg/kg
Experimental: The cellulose pulp was removed directly after the refiner in a TMP-plant and its dry solids content was determined with the aid of “Mettler Toledo HR 73 Halogen Moisture Analyzer”. 70 g bone-dry cellulose pulp was then slushed in 1.4 l cold distilled water with the aid of a slusher of model “Lorentzon & Wettre App. 03, type 8-3, no. 723”. The cellulose pulp with a concentration of 4.8 percent by weight was filtered on a Büchner funnel and the filtrate was returned to be filtered again.
Thereafter the cellulose pulp was slushed in 1.4 l distilled water at a temperature of 55° C. The pulp suspension was left to stand for 1 h and was then filtered two times according to the same process being described above. […]
was prepared as described in Example 1 and added to a portion of the pulp. […] The pH was measured in the pulp suspension and it amounted to 6.2 and the cellulose pulp suspension was allowed to stand, i.e. the sequestering agent was allowed to work for a time of 60 min. […] The manganese content of the cellulose pulp was determined, on one hand, on non-treated pulp, and on the other hand on the portions having been treated with the respective sequestering agents according to the following: 1 g of bone-dry cellulose pulp was transferred to a Teflon-lined vessel specially designed for microwave oven digestion (Microwave Accelerated Reaction System, MARS 5, CEM). […]

SMILES | concentration of manganese in the foam relative to concentration in the solution before the flotation [1] | concentration of copper in the foam relative to concentration in the solution before the flotation [2] | manganese content of the pulp after treatment and removal of chelates [3]
CCCCCCCCCCCCC(C(=O)O)N(CCN(CC(=O)O)CC(=O)O)CC(=O)O (stereo not drawn) [2-dodecyl-3,6-di(carboxymethyl)-3,6-diazaoctane diacid] | about ten times higher | about ten times higher | 6.2 mg/kg
CCCCCCCCCCCCC(C(=O)O)N(CC(=O)O)CC(=O)O (stereo not drawn) [2-dodecyl-3-carboxymethyl-3-azapentane diacid] | about two times higher | about thirteen times higher | –
O=C(O)CN(CCN(CC(=O)O)CC(=O)O)CCN(CC(=O)O)CC(=O)O [DTPA, diethylenetriaminepentaacetic acid, reference compound] | – | – | 9.3 mg/kg
